Positions count from the first letter of the chain named. Names and notes keep the numbering of the source. These are yes or no findings as the source states them, for the method shown.
B1: ARL-1(Q70L) (protein, UniProt Q20758 1-180)
chain: MGGVMSYFRGLFGAREMRILILGLDGAGKTTILYRLQVGEVVTTIPTIGFNVEQVEYKNLKFQVWDLGGLTSIRPYWRCYYANTDAIIYVVDSADRDRVGISRQELATMLQEDELQGAVLAVLANKQDIAGCLTETEVYKALGLDALRNRTIQIFKTSASKGEGLDPAMDWLANQLQQKK
B2: GAD-ARL-1 (protein, UniProt Q20758 1-180)
chain: B1 chain with L70Q
B3: GAD-ARL-3 (full length) (protein, UniProt O45379 1-184)
chain: MGLIDVLKSFKSPSGREIRILLLGLDNAGKTTILKQLSSEDVQHVTPTKGFNVKTVAAMGDIRLNVWDIGGQRSIRPYWSNYYENIDTLIFVIDSNDKKRFDEMNIELGELLDEEKLRKVPVLIFANKQDLVTAASSEEITRKLNLDLLRDRTWHIQACSALKNEGINDGITWVASNLKPASKK

Molecular target: LexA-UNC-69 (C. elegans)
Test: two-hybrid; LexA baits and GAD preys in strain L40; ONPG liquid β-galactosidase assays and auxotrophic (-His) growth assays

binding, no binding:
B1
B2
B3
